According to paper PMC9866149:
No constants are given. Whether binding was seen depends on the method and setting. In cells and extracts the contact can be indirect. Binding can be weak; no strength is given.

Molecular target: P21-activated kinase 1 (PAK1) (pig (endogenous in porcine oocytes))
Assay: co-IP; lysate of approximately 700 porcine oocytes (first meiotic division, 28 h) incubated with anti-PAK1 antibody at 4 °C overnight, protein A and G beads 3 h at 4 °C, immunoblotting; rabbit IgG as control

B1: Aurora A (protein, UniProt A5GFW1 1-402)
chain: MDKCKENCISGLKTTVPPGDGPKRVPVTQHFPAQHLPSANSGQAQRVLCPSNSSQRLPSHTQKLVSSHKPVQNLKQKQSQATSGPRPVSRPLSNTQQSEQPQPAAPGNNPEKEAASKQKNEESKKRQWALEDFEIGRPLGKGKFGNVYLAREKQSKFILALKVLFKTQLEKAGVEHQLRREVEIQSHLRHPNILRLYGYFHDATRVYLILEYAPLGAVYRELQKLSKFDEQRTATYITELANALSYCHSKRVIHRDIKPENLLLGSAGELKIADFGWSVHAPSSRRTTLCGTLDYLPPEMIEGRMHDEKVDLWSLGVLCYEFLVGKPPFEANTYQETYKRISRVEFTFPDFVPEGARDLISRLLKHNPSHRPTLKEVLEHPWITANSKPASSHKKESTSKQP
binding: binds
